PubChem BioAssay AID493246 – Drosophila RNAi Screening Center | 2011

Aim: 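Identify essential fly genes by loss of cell viability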 (primary screen)
Cells: Drosophila Kc and S2R+ cells
Knock-down reagent: long dsRNA against Drosophila genes
Read-out: 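Cell number per well after knock-down, printed as raw plate values; calls were based on per-plate z-scores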
Direction: Kc cell number and S2R+ cell number: higher = more cells remaining
Call rule: 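Active when the per-plate z-score of cell number is 3 or more in the direction of fewer cells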
The screen tested about 21,000 reagents; shown is an unselected part of those that have a named target and a result. Over the whole deposit, 429 (2%) were called active. 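Values are raw and not normalised between plates; calls rest on per-plate z-scores that were not deposited.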 Entries without a mark were called inactive. A plus sign joins genes that one reagent is predicted to hit. No sequences are given here. Not stated in the record: the amount of reagent, the time to read-out.

For aub [DRSC03486], the entry reads Kc cell number, rep 1 = 1.46e6; Kc cell number, rep 2 = 1.49e6; S2R+ cell number, rep 1 = 1.36e6; S2R+ cell number, rep 2 = 1.28e6.
Against Dera [DRSC07207], the entry reads Kc cell number, rep 1 = 1.39e6; Kc cell number, rep 2 = 1.43e6; S2R+ cell number, rep 1 = 1.19e6; S2R+ cell number, rep 2 = 1.28e6.
sut4 [DRSC07703] gave Kc cell number, rep 1 = 1.31e6; Kc cell number, rep 2 = 1.35e6; S2R+ cell number, rep 1 = 1.13e6; S2R+ cell number, rep 2 = 1.27e6.
For CG6294 + CG6299 [DRSC19980], the entry reads Kc cell number, rep 1 = 1.50e6; Kc cell number, rep 2 = 1.44e6; S2R+ cell number, rep 1 = 1.06e6; S2R+ cell number, rep 2 = 1.15e6.
For Apl [DRSC10350], the entry reads Kc cell number, rep 1 = 1.22e6; Kc cell number, rep 2 = 1.39e6; S2R+ cell number, rep 1 = 1.28e6; S2R+ cell number, rep 2 = 1.36e6.
gas [DRSC04521] scored Kc cell number, rep 1 = 1.62e6; Kc cell number, rep 2 = 1.68e6; S2R+ cell number, rep 1 = 1.18e6; S2R+ cell number, rep 2 = 1.29e6.
For cl [DRSC02118], the values are Kc cell number, rep 1 = 1.28e6; Kc cell number, rep 2 = 1.33e6; S2R+ cell number, rep 1 = 6.51e5; S2R+ cell number, rep 2 = 9.45e5.
For CG7789 [DRSC16312] the deposit lists Kc cell number, rep 1 = 4.86e5; S2R+ cell number, rep 1 = 8.51e5.
After knock-down of CG13494 [DRSC04139], the screen gave Kc cell number, rep 1 = 1.84e6; Kc cell number, rep 2 = 1.95e6; S2R+ cell number, rep 1 = 1.25e6; S2R+ cell number, rep 2 = 2.81e5.
With knock-down of Tb [DRSC15815], the screen gave Kc cell number, rep 1 = 1.48e6; Kc cell number, rep 2 = 1.56e6; S2R+ cell number, rep 1 = 9.51e5; S2R+ cell number, rep 2 = 1.09e6.
Nopp140 [DRSC11872] scored Kc cell number, rep 1 = 1.72e6; Kc cell number, rep 2 = 1.81e6; S2R+ cell number, rep 1 = 1.36e6; S2R+ cell number, rep 2 = 1.47e6.
Against kni [DRSC11891] the deposit lists Kc cell number, rep 1 = 1.39e6; Kc cell number, rep 2 = 1.44e6; S2R+ cell number, rep 1 = 1.22e6; S2R+ cell number, rep 2 = 1.31e6.
ApepP [DRSC01866] showed Kc cell number, rep 1 = 1.20e6; Kc cell number, rep 2 = 1.34e6; S2R+ cell number, rep 1 = 1.18e6; S2R+ cell number, rep 2 = 9.47e5.
Silencing of regucalcin [DRSC18908] resulted in: Kc cell number, rep 1 = 1.42e6; Kc cell number, rep 2 = 1.61e6; S2R+ cell number, rep 1 = 1.06e6; S2R+ cell number, rep 2 = 1.21e6.
regucalcin [DRSC20366] showed Kc cell number, rep 1 = 1.69e6; Kc cell number, rep 2 = 1.57e6; S2R+ cell number, rep 1 = 1.10e6; S2R+ cell number, rep 2 = 1.19e6.
Depletion of CG10492 [DRSC02064] gave: Kc cell number, rep 1 = 1.09e6; Kc cell number, rep 2 = 1.17e6; S2R+ cell number, rep 1 = 8.69e5; S2R+ cell number, rep 2 = 8.98e5.
Silencing of Teh3 [DRSC08537] came out at: Kc cell number, rep 1 = 1.35e6; Kc cell number, rep 2 = 1.59e6; S2R+ cell number, rep 1 = 1.14e6; S2R+ cell number, rep 2 = 1.31e6.
Against CG7430 [DRSC10845], the entry reads Kc cell number, rep 1 = 1.30e6; Kc cell number, rep 2 = 1.33e6; S2R+ cell number, rep 1 = 1.14e6; S2R+ cell number, rep 2 = 1.19e6.
Silencing of sens-2 [DRSC02136] resulted in: Kc cell number, rep 1 = 1.45e6; Kc cell number, rep 2 = 1.31e6; S2R+ cell number, rep 1 = 1.13e6; S2R+ cell number, rep 2 = 1.23e6.
With knock-down of sens-2 [DRSC02613] the results were Kc cell number, rep 1 = 1.45e6; Kc cell number, rep 2 = 1.37e6; S2R+ cell number, rep 1 = 1.08e6; S2R+ cell number, rep 2 = 1.27e6.
With knock-down of faf [DRSC16942] the results were Kc cell number, rep 1 = 1.56e6; Kc cell number, rep 2 = 1.53e6; S2R+ cell number, rep 1 = 9.77e5; S2R+ cell number, rep 2 = 1.11e6.

Entries above whose gene name begins with S or s:
sut4 [DRSC07703] | Kc cell number, rep 1 = 1.31e6; Kc cell number, rep 2 = 1.35e6; S2R+ cell number, rep 1 = 1.13e6; S2R+ cell number, rep 2 = 1.27e6
sens-2 [DRSC02136] | Kc cell number, rep 1 = 1.45e6; Kc cell number, rep 2 = 1.31e6; S2R+ cell number, rep 1 = 1.13e6; S2R+ cell number, rep 2 = 1.23e6
sens-2 [DRSC02613] | Kc cell number, rep 1 = 1.45e6; Kc cell number, rep 2 = 1.37e6; S2R+ cell number, rep 1 = 1.08e6; S2R+ cell number, rep 2 = 1.27e6
